We go through two molecules from paper PMC4284802, “The tumour suppressor DLC2 ensures mitotic fidelity by coordinating spindle positioning and cell–cell adhesion” (Nature Communications, 2014).

The target of assay [1] is T1, DLC2 (Deleted in Liver Cancer 2; STARD13) (human (endogenous in HCE)) (UniProt Q9Y3M8).
T1 sequence: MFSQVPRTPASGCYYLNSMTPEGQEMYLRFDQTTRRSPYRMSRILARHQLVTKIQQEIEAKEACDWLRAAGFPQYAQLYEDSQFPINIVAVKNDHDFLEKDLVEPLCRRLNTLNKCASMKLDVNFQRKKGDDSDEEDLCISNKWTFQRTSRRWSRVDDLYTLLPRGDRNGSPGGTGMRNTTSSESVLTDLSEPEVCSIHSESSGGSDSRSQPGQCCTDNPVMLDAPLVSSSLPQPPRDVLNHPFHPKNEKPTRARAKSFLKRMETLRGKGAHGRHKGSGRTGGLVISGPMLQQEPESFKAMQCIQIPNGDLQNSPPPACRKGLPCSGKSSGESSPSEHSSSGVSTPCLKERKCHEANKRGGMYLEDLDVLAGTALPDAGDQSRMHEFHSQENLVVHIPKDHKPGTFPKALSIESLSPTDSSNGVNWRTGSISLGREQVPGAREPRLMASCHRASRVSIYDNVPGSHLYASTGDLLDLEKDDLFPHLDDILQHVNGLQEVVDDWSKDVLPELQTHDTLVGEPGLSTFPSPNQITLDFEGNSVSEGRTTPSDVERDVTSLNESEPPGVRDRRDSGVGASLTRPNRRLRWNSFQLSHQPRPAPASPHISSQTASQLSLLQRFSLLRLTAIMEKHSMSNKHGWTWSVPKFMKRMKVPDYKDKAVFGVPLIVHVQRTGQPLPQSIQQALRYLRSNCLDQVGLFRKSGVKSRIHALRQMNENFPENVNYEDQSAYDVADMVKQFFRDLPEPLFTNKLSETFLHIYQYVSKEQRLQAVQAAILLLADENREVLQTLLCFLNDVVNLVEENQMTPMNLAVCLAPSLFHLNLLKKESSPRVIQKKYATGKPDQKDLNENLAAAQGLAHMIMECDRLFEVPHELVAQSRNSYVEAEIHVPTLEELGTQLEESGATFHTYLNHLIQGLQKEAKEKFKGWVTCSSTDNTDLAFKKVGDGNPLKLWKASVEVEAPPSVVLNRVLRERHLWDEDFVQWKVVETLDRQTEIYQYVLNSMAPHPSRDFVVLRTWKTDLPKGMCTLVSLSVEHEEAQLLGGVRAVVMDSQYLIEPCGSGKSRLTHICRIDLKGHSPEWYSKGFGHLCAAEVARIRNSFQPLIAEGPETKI
As to the kind of experiment: co-IP; HCE cell extracts (0.5% Triton-X-100 in PBS, 4 °C, protease and phosphatase inhibitors); goat anti-DLC2 or rabbit anti-Kif1B antibodies conjugated to Protein G-Sepharose, control IgG of the same species; 2 h at 4 °C; immunoblot. Background: Immunoblotting shows a protein as a band on a membrane.

In assay [2] the target is taxol-stabilized microtubules. As to the kind of experiment: co-sedimentation; GST-fusion proteins (20 μg ml^-1) incubated with taxol-stabilized microtubules (0.45 mg ml^-1) 30 min at room temperature, centrifugation at 55,000 r.p.m. 40 min at 25 °C; supernatant and pellet immunoblotted for GST and α-tubulin; both purified.

These are yes or no findings as the source states them, for the method shown. Binding calls can cover weak binding; strength is not graded here. For some assays here: Where a sequence is shown, tags or fusion partners need not be part of it. For some assays here: Binding seen in cells or lysates may run through a third protein.

In the case of E-cadherin (human (endogenous in HCE)), the binding result in assay [1] is on record as “binds”.

B1: DLC2 SAM domain (residues 1-130) fused to GST (domain or fragment, human, UniProt Q9Y3M8-1 1-130, looked up)
chain: MFSQVPRTPASGCYYLNSMTPEGQEMYLRFDQTTRRSPYRMSRILARHQLVTKIQQEIEAKEACDWLRAAGFPQYAQLYEDSQFPINIVAVKNDHDFLEKDLVEPLCRRLNTLNKCASMKLDVNFQRKKG
notes: cloned into pGEX4T3; Vector pGEX4T3; also called SAM domain construct; GST-fusion protein containing the SAM domain; source: E. coli BL21pLysS, purified (glutathione-agarose)
For the molecule B1, the binding result in assay [2] is “binds”.
